Source: publication PMC9488896 (ACS Chemical Biology, 2022)

Test: general procedure: Fmoc solid-phase peptide synthesis; Fmoc-Rink Amide AM resin (Iris Biotech, 0.74 mmol/g); HCTU/DIPEA
Settings: whole synthesis, scale of the general procedure 0.1 mmol; for final HPLC purity: analytical RP-HPLC, UV 214 and 280 nm

Row | Substance | final HPLC purity [%] | isolated yield [%]
1 | H4(12–18)K16Ac (KGGAKRH; K16 acetylated; C-terminal amide; UniProt P62805 13-19, looked up, fragment) | 99 | 31
2 | H3(11–17)K14Ac (TGGKAPR; K14 acetylated; C-terminal amide; UniProt P68431 12-18, looked up, fragment) | 98 | 28
3 | H4(4–10)K8Ac (GKGGKGL; K8 acetylated; C-terminal amide; UniProt P62805 5-11, looked up, fragment) | 99 | 25
4 | H3(1–7)K4Ac (ARTKQTA; K4 acetylated; C-terminal amide; UniProt P68431 2-8, looked up, fragment) | 99 | 30
5 | H3(6–12)K9Ac (TARKSTG; K9 acetylated; C-terminal amide; UniProt P68431 7-13, looked up, fragment) | 98 | 27
6 | H4(9–15)K12Ac (GLGKGGA; K12 acetylated; C-terminal amide; UniProt P62805 10-16, looked up, fragment) | 99 | 41
7 | H3(23–29)K27Ac (KAARKSA; K27 acetylated; C-terminal amide; UniProt P68431 24-30, looked up, fragment) | 99 | 45
